The supplement of paper PMC4635364
Counter-ions that a name gives are not always drawn. Some of the results follow. Repeats in this data set agree poorly, so a single value says little.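 ReNCell VM, a human fetal ventral-midbrain neural progenitor line, was differentiated without mitogens. Blinded raters scored images stained for doublecortin (early neurons) or tyrosine hydroxylase (dopaminergic neurons) against untreated wells (0 = no change). Scores were averaged across repeats and both raters, and compounds averaging 2 or more were selected as hits for retesting.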

What follows are molecules tested on ReNCell VM (assay: dopaminergic neuron differentiation score (TH+ cell fraction vs untreated, manual image score) (score (0 to 3)); higher = more TH+ dopaminergic neuron differentiation). Details: library: Spectrum; 2 uM; 4 weeks; BDNF 10 ng/ml + GDNF 10 ng/ml.

Dopaminergic neuron differentiation score, inactive:
Cc1ccc2c(Br)cc(Br)c(OC(=O)c3ccccc3)c2n1 0
CSc1ccc2c(c1)C(N1CCN(C)CC1)Cc1ccccc1S2 (configuration not stated) 0
O=C(N[C@H](CO)[C@H](O)c1ccc([N+](=O)[O-])cc1)C(Cl)Cl 0
COc1ccc2c(c1)OCC(Cc1ccc(OC)c(OC(C)=O)c1)C2=O (configuration not stated) 0
CC[C@H]1OC(=O)[C@H](C)[C@@H](O[C@H]2C[C@@](C)(OC)[C@@H](O)[C@H](C)O2)[C@H](C)[C@@H](O[C@@H]2O[C@H](C)C[C@H](N(C)C)[C@H]2O)[C@](C)(OC)C[C@@H](C)C(=O)[C@H](C)[C@@H](O)[C@]1(C)O 0
CC1CC(OC(=O)C(O)c2ccccc2)CC(C)(C)C1 (configuration not stated) 1
Cc1c[nH]c2ccccc12 0
Cc1c(C(=O)O)c(O)cc2c1C(=O)c1c(O)c([C@@H]3O[C@H](CO)[C@@H](O)[C@H](O)[C@H]3O)c(O)c(O)c1C2=O 0
Cc1ncc([N+](=O)[O-])n1CC(O)CCl (configuration not stated) 0
Cl.N=C(N)NCCC[C@H](N)C(=O)O 0
O=C(CCc1ccc(O)cc1)c1c(O)cc(O)cc1O[C@@H]1OC(CO)[C@@H](O)[C@@H](O)C1O (some centres not stated) 0
C(=C\c1ccccc1)/CN1CCN(C(c2ccccc2)c2ccccc2)CC1 0
CC(=O)[C@H]1CC[C@H]2[C@@H]3C=CC4=CC(=O)CC[C@@]4(C)[C@@H]3CC[C@]12C 0
OC[C@@H](O)[C@@H](O)[C@H](O)[C@H](O)CO 0
CC(=O)Nc1ccc(CC(=O)O)cc1 0
C=CC(C)(O)CCC=C(C)CCC=C(C)C (mixture of isomers) 0
CCCC(=O)O[C@]1(C(=O)CO)CC[C@H]2[C@@H]3CCC4=CC(=O)CC[C@]4(C)[C@H]3[C@@H](O)C[C@@]21C 0
CC(=O)OCC[N+](C)(C)C 0
c1ccc([C@H]2CN3CCSC3=N2)cc1 0
CN1CCc2c(c3ccccc3n2Cc2ccccc2)C1 0
Nc1nc(F)nc2c1ncn2[C@@H]1O[C@H](COP(=O)(O)O)[C@@H](O)[C@@H]1O 0

Pulled by compound from above (2):
Dopaminergic neuron differentiation score, inactive:
C=CC(C)(O)CCC=C(C)CCC=C(C)C (mixture of isomers) 0
CN1CCc2c(c3ccccc3n2Cc2ccccc2)C1 0

Same assay, conditions: library: Tocriscreen; 2 uM; 4 weeks; BDNF 10 ng/ml + GDNF 10 ng/ml

Dopaminergic neuron differentiation score, inactive:
Cc1c(C2CCN(CCc3ccccc3)CC2)noc1-c1ccc(Cl)cc1 [L-741,742 hydrochloride] 0
CN(C)C(=O)C(=O)c1cn(C)c2cc(Cl)c(C(=O)N3CCC(Cc4ccc(F)cc4)CC3)cc12 0
N[C@@H](CS(=O)O)C(=O)O [L-Cysteinesulfinic acid] 0
N[C@@H](Cc1cc(CP(=O)(O)O)cc(-c2ccccc2Cl)c1)C(=O)O 0
O=C1CC2(CCCC2)CC(=O)N1CCCCNCC1COc2ccccc2O1 (configuration not stated) 0
C[S+]([O-])c1ccc(-c2nc(-c3ccc(F)cc3)c(-c3ccncc3)[nH]2)cc1 (configuration not stated) 0
